Results deposited as PubChem BioAssay AID652243 (Drosophila RNAi Screening Center, 2013).
The deposit covers about 24,000 reagents; shown is an unselected part of those that have a named target and a result. Over the whole deposit, 246 (1%) were called active. 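Plates not normalised; calls are printed but the firefly/Renilla ratio behind them is not deposited; fold cut for lowering reported inconsistently.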 Raw values vary from plate to plate and are shown uncorrected. Not stated in the record: the amount of reagent.

- Assay: 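Knock-downs that decrease or increase androgen receptor reporter signal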 (primary screen)
- Cell system: Drosophila S2R+ cells
- Reagent: long dsRNA against Drosophila genes
- Time to read-out: 72 h (48 h, then 24 h hormone)
- Treatment: synthetic androgen R1881 at 10 nM for 24 h
- Detection: 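Firefly light from an androgen-responsive reporter and Renilla control light per well, raw and unnormalised, for each of two replicates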
- Scale: firefly reporter light: higher = more light from androgen-responsive reporter; Renilla control light: higher = more constitutive control signal (cell number, transfection)
- Call rule: 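Across duplicate plates, a knock-down whose log firefly/Renilla ratio shifted a set fold down or up from the GFP/LacZ control mean was a hit; the downward cut appears as both 1.5 and 3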
- Calls: active = hit: reporter lowered or raised; inactive = no hit

gene knocked down	dsRNA	firefly reporter light, replicate 1	firefly reporter light, replicate 2	Renilla control light, replicate 1	Renilla control light, replicate 2	Call
Sk1	DRSC19774	2.56e5	4.16e5	2.23e6	2.05e6	inactive
Sk1	DRSC36810					inactive
Ubr1	DRSC20148	85146	83597	8.29e5	6.55e5	inactive
cib	DRSC18660	2.21e5	2.07e5	1.85e6	1.93e6	inactive
Prosbeta2R2	DRSC12193	48580	48412	9.57e5	1.19e6	inactive
Dnaaf3	DRSC06684	1.51e5	1.76e5	1.56e6	1.27e6	inactive
CG9676	DRSC20204	2.72e5	2.86e5	3.66e6	2.99e6	inactive
Zip42C.1	DRSC05003	4.14e5	2.37e5	1.76e6	1.11e6	inactive
CG15743	DRSC19709	4.10e5	4.77e5	2.19e6	2.87e6	inactive
CG15743	DRSC26389	2.99e5	2.48e5	5.23e5	7.30e5	inactive
vir-1	DRSC02501	1.44e5	1.42e5	9.61e5	1.14e6	inactive
vir-1	DRSC02863	80676	77077	8.09e5	9.39e5	inactive
vir-1	DRSC25208	7.87e5	7.70e5	7.09e5	5.73e5	inactive
Marc	DRSC06614	3.34e5	1.91e5	1.82e6	1.60e6	inactive
Fum2	DRSC18345	1.94e5	2.04e5	1.35e6	2.03e6	inactive
Fum2	DRSC25313	7.14e5	9.05e5	1.25e6	1.30e6	inactive
CG13299	DRSC09973	1.85e5	1.79e5	2.02e6	2.95e6	inactive
danr	DRSC14651	1.55e5	1.91e5	1.82e6	1.77e6	inactive
danr	DRSC27029	3.21e5	1.93e5	5.74e5	3.72e5	inactive
for	DRSC00195	43965	44684	2.44e5	1.05e5	inactive
for	DRSC00818	6.21e5	6.88e5	1.49e6	1.44e6	inactive
for	DRSC25103	5.29e5	4.21e5	3.78e5	3.48e5	inactive
for	DRSC36604	6.65e5	6.00e5	1.52e6	2.03e6	inactive
for	DRSC36605					inactive
SkpE	DRSC19431	4.45e5	1.86e5	1.22e6	5.25e5	inactive
Lasp	DRSC10379	2.53e5	1.47e5	1.45e6	1.02e6	inactive
Lasp	DRSC23555	3.09e5	3.22e5	4.51e5	5.06e5	inactive
Gabat	DRSC10846	1.34e5	1.60e5	1.64e6	1.52e6	inactive
ppk28	DRSC19919	3.25e5	1.88e5	2.40e6	1.22e6	inactive
Tsp68C	DRSC09295	1.50e5	61953	2.32e5	1.78e5	inactive
Tsp68C	DRSC28942	5.75e5	5.41e5	9.39e5	7.99e5	inactive
Trxr1	DRSC18668	1.29e5	53395	1.02e6	7.43e5	inactive
Trxr1	DRSC22293	6.76e5	5.97e5	2.10e6	2.32e6	inactive
Trxr1	DRSC25749	2.94e5	3.66e5	6.47e5	4.13e5	inactive
CG14852	DRSC14976	1.51e5	1.06e5	2.15e6	2.02e6	inactive
CG14852	DRSC23844	8.91e5	9.05e5	9.29e5	8.91e5	inactive
CG6497	DRSC10654	3.48e5	2.90e5	3.41e6	2.52e6	inactive
CG6497	DRSC21469	9.18e5	5.84e5	3.20e6	2.42e6	inactive
CG6497	DRSC26253	2.17e5	3.65e5	2.85e5	3.98e5	inactive
CG14020	DRSC02350	82643	1.28e5	9.98e5	9.47e5	inactive

Entries listed so far whose gene name starts with D or d (3):
gene knocked down	dsRNA	firefly reporter light, replicate 1	firefly reporter light, replicate 2	Renilla control light, replicate 1	Renilla control light, replicate 2	Call
Dnaaf3	DRSC06684	1.51e5	1.76e5	1.56e6	1.27e6	inactive
danr	DRSC14651	1.55e5	1.91e5	1.82e6	1.77e6	inactive
danr	DRSC27029	3.21e5	1.93e5	5.74e5	3.72e5	inactive
